Measured values from patent US6288230A, “2-(2, 3-dihydrobenzofuran-5-yl)-4-aminomethylimidazoles: dopamine receptor subtype specific ligands” (Neurogen Corporation, priority 1999, dated 2001).
At least one compound was matched to its structure with a doubt left.

Tested on: D4 receptor
Test: D4 receptor binding (displacement of 3H-YM 09151-2, COS cells with recombinant receptor)
Parameters: species or system African Green monkey
Details: 0.5 nM 3H-YM 09151-2; nonspecific binding with 1 mM spiperone
Experimental: Pellets of COS cells containing recombinantly produced D2 or D4 receptors from African Green monkey are used for the assays. The sample is homogenized in 100 volumes (w/vol) of 0.05 M Tris HCl buffer at […] and pH 7.4. The sample is then centrifuged at 30,000×g and resuspended and rehomogenized. The sample is then centrifuged again at 30,000×g and the final tissue sample is frozen until use. The tissue is resuspended 1:20 (wt/vol) in 0.05 M Tris HCl buffer containing 100 mM NaCl.

## Cc1cnc(N2CCN(Cc3cnc(-c4ccc5c(c4)CCO5)[nH]3)CC2)nc1 [Compound 3a, 5-(5-{[4-(5-methylpyrimidin-2-yl)piperazinyl]-methyl}imidazol-2-yl)-2,3-dihydrobenzo[b]furan]
  Ki: 15 nM
